Laboratory results taken from the supplement of paper PMC8732350.
Structures can show the parent of a compound that is named as a salt. ± gives the standard deviation of the averaged measurements. The list shows a part of the results. Single values are uncertain here, since repeats match poorly.

These compounds were tested on A549 (assay: surface PD-L1 immunofluorescence intensity relative to IFN-gamma-only control (ratio); higher = more PD-L1 expression). Details: 10 µM; exposure time 24 h; IFN-gamma 100 ng/mL.

| SMILES | surface PD-L1 immunofluorescence intensity |
| --- | --- |
| CCN(CC)CCCCN1c2ccccc2Oc2ccc(Cl)cc21 [10-DEBC hydrochloride] | 0.864 |
| CCCC(=O)OCOC(=O)C1=C(C)NC(C)=C(C(=O)OC)C1c1cccc(Cl)c1Cl (stereo unspecified) [Cleviprex (Clevidipine)] | 1.16 |
| FC(F)(F)c1cccc(-c2noc(-c3cc(-c4ccccc4)c(C(F)(F)F)s3)n2)c1 | 0.854 |
| CN1CCC(OC(c2ccccc2)c2ccccc2)CC1 [Diphenylpyraline hydrochloride] | 1.07 |
| CCOC(=O)[C@H](CCc1ccccc1)N[C@@H](C)C(=O)N1Cc2cc(OC)c(OC)cc2C[C@H]1C(=O)O [Moexipril HCl] | 1.16 |
| CCOC(=O)[C@H](CCc1ccccc1)N[C@@H](C)C(=O)N1Cc2cc(OC)c(OC)cc2C[C@H]1C(=O)O [Moexipril hydrochloride] | 0.955 |
| C/C=C1\[C@H]2C=C(C)C[C@]1(N)c1ccc(=O)[nH]c1C2 [(-)-Huperzine A] | 1.07 |
| Clc1ccc(Nc2nnc(Cc3ccncc3)c3ccccc23)cc1 [Vatalanib] | 1.13 |
| Clc1ccc(Nc2nnc(Cc3ccncc3)c3ccccc23)cc1 [Vatalanib dihydrochloride (PTK787)] | 0.957 |
| Cn1cc(-c2ccc3nnc(Sc4ccc5ncccc5c4)n3n2)cn1 | 0.907 |
| O=C1NC(=O)/C(=C/c2cccc(C(F)(F)F)c2)S1 | 1.03 ± 0.093 |
| COC(=O)c1ccc2c(C(=Nc3ccc(N(C)C(=O)CN4CCN(C)CC4)cc3)c3ccccc3)c(O)[nH]c2c1 [BIBF1120 (Vargatef)] | 1.1 |
| Cc1cc2c(F)c(Oc3ncnn4cc(OC[C@@H](C)O)c(C)c34)ccc2[nH]1 | 0.983 ± 0.02 |
| COc1cc(/C=C/C(=O)CC(=O)/C=C/c2ccc(O)c(OC)c2)ccc1O [Curcumin] | 0.967 ± 0.046 |
| CCCCCCN(CCCCCC)C(=O)Cc1c(-c2ccc(Cl)cc2)[nH]c2ccc(Cl)cc12 | 1.04 |
| O=C1c2cccc3c2[C@H](CCC3)CN1[C@@H]1CN2CCC1CC2 [Palonosetron HCl] | 0.941 |
| NCC[C@H](O)C(=O)N[C@@H]1C[C@H](N)[C@@H](O[C@H]2O[C@H](CN)[C@@H](O)[C@H](O)[C@H]2O)[C@H](O)[C@H]1O[C@H]1O[C@H](CO)[C@@H](O)[C@H](N)[C@H]1O [Amikacin hydrate] | 0.958 ± 0.015 |
| NCC[C@H](O)C(=O)N[C@@H]1C[C@H](N)[C@@H](O[C@H]2O[C@H](CN)[C@@H](O)[C@H](O)[C@H]2O)[C@H](O)[C@H]1O[C@H]1O[C@H](CO)[C@@H](O)[C@H](N)[C@H]1O [Amikacin sulfate] | 0.963 |
| O=C1CCC(N2C(=O)c3ccccc3C2=O)C(=O)N1 (stereo unspecified) [Thalidomide] | 0.915 ± 0.061 |
| CCN(CC)CCNC(=O)COc1ccc(OC)cc1 [Mefexamide hydrochloride] | 1.01 |
| Cc1nc2n(c(=O)c1CCN1CCC(c3noc4cc(F)ccc34)CC1)CCCC2O (stereo unspecified) [Paliperidone (Invega)] | 0.996 |
| CC(=O)OCC1=C(C(=O)O)N2C(=O)[C@@H](NC(=O)Cc3cccs3)[C@H]2SC1 [Cephalothin sodium salt] | 0.884 |
| Clc1ccc(C(Cn2ccnc2)OCc2csc3c(Cl)cccc23)c(Cl)c1 (stereo unspecified) [Sertaconazole nitrate] | 1.03 |
| O=C(Nc1cccc2cccnc12)c1ccc(N2C(=O)[C@@H]3[C@H](C2=O)[C@@H]2C=C[C@H]3C2)cc1 [endo-IWR 1] | 1.02 |

A stretch from further up, for reference:

| SMILES | surface PD-L1 immunofluorescence intensity |
| --- | --- |
| FC(F)(F)c1cccc(-c2noc(-c3cc(-c4ccccc4)c(C(F)(F)F)s3)n2)c1 | 0.854 |
| CN1CCC(OC(c2ccccc2)c2ccccc2)CC1 [Diphenylpyraline hydrochloride] | 1.07 |
| CCOC(=O)[C@H](CCc1ccccc1)N[C@@H](C)C(=O)N1Cc2cc(OC)c(OC)cc2C[C@H]1C(=O)O [Moexipril HCl] | 1.16 |
| CCOC(=O)[C@H](CCc1ccccc1)N[C@@H](C)C(=O)N1Cc2cc(OC)c(OC)cc2C[C@H]1C(=O)O [Moexipril hydrochloride] | 0.955 |
| C/C=C1\[C@H]2C=C(C)C[C@]1(N)c1ccc(=O)[nH]c1C2 [(-)-Huperzine A] | 1.07 |
| Clc1ccc(Nc2nnc(Cc3ccncc3)c3ccccc23)cc1 [Vatalanib] | 1.13 |
| Clc1ccc(Nc2nnc(Cc3ccncc3)c3ccccc23)cc1 [Vatalanib dihydrochloride (PTK787)] | 0.957 |
| Cn1cc(-c2ccc3nnc(Sc4ccc5ncccc5c4)n3n2)cn1 | 0.907 |
| O=C1NC(=O)/C(=C/c2cccc(C(F)(F)F)c2)S1 | 1.03 ± 0.093 |
| COC(=O)c1ccc2c(C(=Nc3ccc(N(C)C(=O)CN4CCN(C)CC4)cc3)c3ccccc3)c(O)[nH]c2c1 [BIBF1120 (Vargatef)] | 1.1 |
| Cc1cc2c(F)c(Oc3ncnn4cc(OC[C@@H](C)O)c(C)c34)ccc2[nH]1 | 0.983 ± 0.02 |
| COc1cc(/C=C/C(=O)CC(=O)/C=C/c2ccc(O)c(OC)c2)ccc1O [Curcumin] | 0.967 ± 0.046 |
| CCCCCCN(CCCCCC)C(=O)Cc1c(-c2ccc(Cl)cc2)[nH]c2ccc(Cl)cc12 | 1.04 |
| O=C1c2cccc3c2[C@H](CCC3)CN1[C@@H]1CN2CCC1CC2 [Palonosetron HCl] | 0.941 |
| NCC[C@H](O)C(=O)N[C@@H]1C[C@H](N)[C@@H](O[C@H]2O[C@H](CN)[C@@H](O)[C@H](O)[C@H]2O)[C@H](O)[C@H]1O[C@H]1O[C@H](CO)[C@@H](O)[C@H](N)[C@H]1O [Amikacin hydrate] | 0.958 ± 0.015 |
| NCC[C@H](O)C(=O)N[C@@H]1C[C@H](N)[C@@H](O[C@H]2O[C@H](CN)[C@@H](O)[C@H](O)[C@H]2O)[C@H](O)[C@H]1O[C@H]1O[C@H](CO)[C@@H](O)[C@H](N)[C@H]1O [Amikacin sulfate] | 0.963 |
| O=C1CCC(N2C(=O)c3ccccc3C2=O)C(=O)N1 (stereo unspecified) [Thalidomide] | 0.915 ± 0.061 |

Further results.

| SMILES | surface PD-L1 immunofluorescence intensity |
| --- | --- |
| CC1(C)S[C@@H]2[C@H](NC(=O)Cc3ccccc3)C(=O)N2[C@H]1C(=O)O [Benzylpenicillin sodium] | 1.04 |
| CC1(C)S[C@@H]2[C@H](NC(=O)Cc3ccccc3)C(=O)N2[C@H]1C(=O)O [Benzathine benzylpenicillin] | 1.02 |
| CCCCc1nc(Cl)c(CO)n1Cc1ccc(-c2ccccc2-c2nnn[nH]2)cc1 [Losartan] | 1.06 |
| O=C(O)CCNC(=O)c1ccc(/N=N/c2ccc(O)c(C(=O)O)c2)cc1 [Balsalazide Sodium] | 1.02 |
| C[n+]1ccccc1/C=N/O [Pralidoxime chloride] | 0.922 |
| CCOc1cc(N)c(Cl)cc1C(=O)NCC1CN(Cc2ccc(F)cc2)CCO1 (stereo unspecified) [Mosapride citrate] | 1.01 |
| Cc1cccc(Nc2ccccc2C(=O)O)c1C [Mefenamic acid] | 0.867 |
| CCC(C)n1ncn(-c2ccc(N3CCN(c4ccc(OCC5COC(Cn6cncn6)(c6ccc(Cl)cc6Cl)O5)cc4)CC3)cc2)c1=O (stereo unspecified) [Itraconazole] | 0.981 |
| CCC(C)n1ncn(-c2ccc(N3CCN(c4ccc(OCC5COC(Cn6cncn6)(c6ccc(Cl)cc6Cl)O5)cc4)CC3)cc2)c1=O (stereo unspecified) [Itraconazole (Sporanox)] | 0.96 |
| CN(CCOc1ccc(C[C@H](Nc2ccccc2C(=O)c2ccccc2)C(=O)O)cc1)c1ccccn1 | 0.99 |
| C[C@H]1[C@H](OC(=O)CCC(=O)O)O[C@@H]2O[C@@]3(C)CC[C@H]4[C@H](C)CC[C@@H]1[C@@]24OO3 [Artesunate] | 1.18 |
| O=C1OC(CN2CCOCC2)CN1/N=C/c1ccc([N+](=O)[O-])o1 (stereo unspecified) [Furaltadone hydrochloride] | 1.1 |
| O=C1c2c(O)cc(O)cc2O[C@H](c2cc(O)c(O)c(O)c2)[C@H]1O [Dihydromyricetin (Ampeloptin)] | 1.1 |
| Cc1ccc(-c2c(-c3nn(C)c4ncnc(N5CC[C@H](N6CCCCC6)C5)c34)cnn2C)cc1 | 0.945 |
| CNCCCN1c2ccccc2CCc2ccccc21 [Desipramine hydrochloride] | 1.12 |
| Cn1c(=O)c2c(ncn2CCO)n(C)c1=O [Etofylline] | 0.996 |
| COC(C)(C)CCCC(C)C/C=C/C(C)=C/C(=O)O (stereo unspecified) [Methoprene acid] | 1.08 |
| C[C@@]1(c2cc(-c3cncnc3)c(F)cc2F)CCSC(N)=N1 | 1.12 |
| CC(C)NCC(O)c1cc(O)cc(O)c1 (stereo unspecified) [Metaproterenol sulfate, orciprenaline sulfate] | 0.996 |
| CC(C(=O)Nc1cccc(/N=C/c2c(O)ccc3ccccc23)c1)c1ccccc1 (stereo unspecified) [Salermide] | 1.05 |
| O=[N+]([O-])c1cc2nc(O)c(O)nc2cc1[N+](=O)[O-] | 1.01 |
| CCCCCCCCCCCCCCSCC(=O)O [Tetradecylthioacetic acid] | 1.02 |
| O=C(O)CN(CCN(CC(=O)O)CC(=O)O)CCN(CC(=O)O)CC(=O)O [Pentetic acid] | 1.05 |
| CC(C)(CO)Cc1cc(C(C)(C)C)c(O)c(C(C)(C)C)c1 | 1.06 |

| SMILES | surface PD-L1 immunofluorescence intensity |
| --- | --- |
| CCc1cc2c(c(CC)n1)CCC(=O)N2Cc1ccc(-c2ccccc2-c2nn[nH]n2)cc1 [ZD 7155 hydrochloride] | 1.08 |
| O=C(/C=C/C=C/c1ccc2c(c1)OCO2)N1CCCCC1 [Piperine (1-Piperoylpiperidine)] | 1.1 |
| O=c1c2ccccc2nc2n1CCc1c-2[nH]c2ccccc12 [Rutaecarpine (Rutecarpine)] | 1.15 |
| CN(C)c1ccccc1CN1CCCN(Cc2ccccc2N(C)C)C1c1ccncc1 | 0.957 |
| OC[C@H]1O[C@@H](n2cnc3c2N=CNC[C@H]3O)C[C@@H]1O [Pentostatin] | 0.961 |
| CCC(=O)OCC(=O)[C@@]1(OC(=O)CC)[C@@H](C)C[C@H]2[C@@H]3CCC4=CC(=O)C=C[C@]4(C)[C@@]3(Cl)[C@@H](O)C[C@@]21C [Beclomethasone dipropionate] | 0.799 |
| CCC(=O)OCC(=O)[C@@]1(OC(=O)CC)[C@@H](C)C[C@H]2[C@@H]3CCC4=CC(=O)C=C[C@]4(C)[C@@]3(Cl)[C@@H](O)C[C@@]21C [Beclomethasone dipropionate (Beclometasone dipropionate)] | 0.808 |
| CC(C)=CCC/C(C)=C/CC/C(C)=C/CC/C(C)=C/CO [Geranylgeraniol] | 1.03 |
| Oc1cc2c(c(Cl)c1O)CCNCC2c1ccccc1 (stereo unspecified) | 1.02 |
| CCN(CC)Cc1cc(Nc2ccnc3cc(Cl)ccc23)ccc1O [Amodiaquin dihydrochloride dihydrate] | 1.04 |
| COc1ccccc1N1CCN(CCCNc2cc(=O)n(C)c(=O)n2C)CC1 [Urapidil hydrochloride] | 0.97 ± 0.026 |
| CN/C(=N\c1ccc(C2=NNC(=O)CC2C)cc1)NC#N (stereo unspecified) [Siguazodan] | 0.994 |
| COc1nc(N)nc2c1ncn2[C@@H]1O[C@H](CO)[C@@H](O)[C@@H]1O [Nelarabine (Arranon)] | 0.992 |
| OC[C@H]1O[C@H](O[C@H]2O[C@H](CO)[C@@H](O)[C@H](O)[C@H]2O)[C@H](O)[C@@H](O)[C@@H]1O [Trehalose] | 0.963 |
| CCN(CC)CCOc1ccc(C(=C(Cl)c2ccccc2)c2ccccc2)cc1 [Clomiphene citrate (Z,E)] | 1 |
| CN(C)[C@@H]1C(O)=C(C(=O)NCNCCCC[C@H](N)C(=O)O)C(=O)[C@@]2(O)C(O)=C3C(=O)c4c(O)cccc4[C@@](C)(O)[C@H]3C[C@@H]12 [Lymecycline] | 1.02 |
| CCCCCOC(=O)Nc1nc(=O)n([C@@H]2O[C@H](C)[C@@H](O)[C@H]2O)cc1F [Capecitabine (Xeloda)] | 1.12 |
| CN1CCOC(c2ccccc2)c2ccccc2C1 (stereo unspecified) [Nefopam hydrochloride] | 1.05 |
| CN1CCC(=C2c3ccccc3CCc3sccc32)CC1 [Pizotifen malate] | 0.944 |
| Cc1cnc(C(=O)NCCc2ccc(S(=O)(=O)NC(=O)NC3CCCCC3)cc2)cn1 [Glipizide] | 0.967 |
| O=C(Cc1ccccc1)Nc1nc2ccc(Cl)cc2c2nc(-c3ccco3)nn12 | 0.99 |
| CC(C)NC[C@H](O)COc1cccc2[nH]ccc12 [(S)-(-)-Pindolol] | 0.995 |
| c1cc2c3c(c1)c1c(n3CCNC2)CCCC1 [WAY 629 hydrochloride] | 1.01 |
